Values are the deposited “Percent Effect”, in %.
How 0% and 100% were set is not recorded. Most values in the screen are low, and negative values occur.
The compounds are a random part of those screened.
Two or more numbers in one place are separate tests of the same structure; such repeats can differ widely.

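Viability assay of Plasmodium falciparum sporozoites; the read-out is not stated. The concentration is filed as 10 mM, unlikely as a test dose, so the dose is not known. Higher reads as lower viability (inferred: compounds with an IC50 in retests scored well above the rest). Strong results were mostly tested again. Size under these conditions: about 34,000 compounds, about 280 of them at 50% or above in at least one test.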

Compound	Percent Effect
Cc1ccc(CN2CCc3[nH]nc(C(=O)N4CCN(C)CC4)c3C2)o1.O=C(O)C(F)(F)F.O=C(O)C(F)(F)F.O=C(O)C(F)(F)F	4.962
CCC1CC(=O)NCc2nc3sc(C)cn3c21 (centres undefined)	-31.03 and -42.51
CS(=O)(=O)N1Cc2ccnn2CC(C(=O)NCc2cccnc2)C1.O=C(O)C(F)(F)F.O=C(O)C(F)(F)F (centres undefined)	10.16
O=C(NCc1ccccc1CO)Nc1ccc2c(c1)CCO2	10.47
Cn1cc(CCN2CCOC(CNc3cccnn3)C2)cn1 (centres undefined)	7.194
CCc1ccc(O)c(C(=O)NC2CCN(S(=O)(=O)CC)CC2)c1	13.69
CC(C)c1nc(O)c2nnn(C[C@H]3CCCN(Cc4cccs4)C3)c2n1	0.5115
Cc1ccc(-c2nc(CN3CCn4c(C)nnc4C3)co2)cc1	5.849
CN(c1nccc(-c2cnc3sccn3c2=O)n1)C1CCCCC1	-9.568
Cc1cn2c(n1)CCC(NC(=O)c1cc(C(C)C)no1)C2 (centres undefined)	-6.243
[H][C@@]12C[C@@H](OCc3ccccc3)C[C@]1([H])CN(CC(=O)N1CCOCC1)C2	7.497
O=C(O)C(F)(F)F.[H][C@]12CCN(C(=O)C3CCOCC3)[C@@]1([H])CCC(=O)N2Cc1ccncc1	-2.851
O=C(c1cccs1)N1CCCn2cnc(COCC3CC3)c2C1	-7.552
Cc1cnn(CC2CCCCN2CC(=O)Nc2nc(C)cs2)c1 (centres undefined)	3.567
CN(Cc1cccs1)C(=O)CN1CCCC1Cn1cncn1 (centres undefined)	0
O=C(NC1CCc2nccn2C1)c1ccc(NC2CC2)nc1 (centres undefined)	-1.427
NS(=O)(=O)NCc1cc(-c2ccc(C(F)(F)F)cc2)n[nH]1	-26.91 and -15.11 and 95.43
O=C(O)C(F)(F)F.O=C(O)C(F)(F)F.O=C(c1ccccn1)N1Cc2nccn2CC(CN2CCOCC2)C1 (centres undefined)	2.349
Br.Cn1nccc1CN1CCOC(c2cccc(-c3cncnc3)n2)C1 (centres undefined)	5.573
Cc1noc2ncc(C(=O)NCC3CCCOC3)cc12 (centres undefined)	12.54
CCOc1ncccc1C(=O)N1CCCC1c1c(C)nn(C)c1OC (centres undefined)	-12.98
CCOc1ccnc(N2CCN(C(=O)c3ccc(C#N)cc3)CC2)n1	-7.451
CCN(Cc1noc(C)n1)C(=O)C(c1cccc(C)c1)N(C)C (centres undefined)	13.69
[H][C@@]12CCC(=O)N(CCc3c[nH]cn3)[C@]1([H])CCN(Cc1cnn(C)c1)C2	-6.642
COCCC(=O)N1CCC2(CC1)CN(C(C)=O)Cc1ccccc1O2	-3.71
CN(c1nc(Cn2cnccc2=O)cs1)C1CC1	12.38
Cc1nc(CN2CCC3(CCN(Cc4nccn4C)CC3)C2=O)cs1.O=C(O)C(F)(F)F.O=C(O)C(F)(F)F	16.02
O=C(NCC(O)c1ccc(Cl)c(F)c1)NC1CC=CC1 (centres undefined)	-10.56
CN(CC(C)(C)O)C1CCCN(Cc2noc(C3CC3)n2)C1 (centres undefined)	7.092
Cc1ccc(-n2cc(C(=O)NCc3nnc4n3CCCCC4)nn2)cc1	-6.834
NC(=O)NC(CC(=O)N1CCc2sccc2C1)c1ccccc1F (centres undefined)	3.939
Cc1ccccc1OC1CCN(S(=O)(=O)c2c(C)n[nH]c2C)CC1	0.8951
O=C(O)C(F)(F)F.[H][C@]12CCN(C(=O)c3ccncc3F)[C@@]1([H])CC[C@H](COCC)O2	3.23
Cn1ccc(CN2CCC(OCCc3ccccc3)CC2)cc1=O	0.8177
COc1ccc2c(c1)CN(CC(=O)NC1CCCC1)CC2	-2.954
CN(Cc1noc(C2CC2)n1)C1CCN(Cc2ncc[nH]2)C1 (centres undefined)	19.59
COc1cccc(C(=O)NC(CC(=O)O)c2cccs2)c1OC (centres undefined)	0.8075
CCC(CN1CCOCC1)NC(=O)Cc1c(C)[nH]c2cc(C)cc(C)c12 (centres undefined)	-6.513
Cn1cc(CNC2CCc3ncnn3C2)c(-c2cccnc2)n1 (centres undefined)	-9.112
O=C(CCn1cncn1)NCC(c1ccco1)N1CCCC1 (centres undefined)	-1.735
O=C(O)C(F)(F)F.[H][C@@]12CN(Cc3cccs3)C[C@]1([H])C(=O)N(c1cncnc1)C2	9.16
CC(C)c1nc(C2CCCN(c3nccc(N4CCCC4)n3)C2)no1 (centres undefined)	-0.7718
Cc1nn(C)c(C)c1C1CCCN1Cc1nc(-c2cccs2)no1 (centres undefined)	25.89 and 35.27 and 37.07
Cc1ncccc1CNC1CCCN(Cc2noc(C3CC3)n2)C1 (centres undefined)	11.11
Cc1nc(CN(C)C2CCN(CC3CCC3)C2)no1 (centres undefined)	-4.662
COc1cc(C)nc(N2CCN(C(=O)c3ccn(C)c(=O)c3)CC2)n1	-381
O=C(CCCNc1ncccn1)Nc1cc(C(F)(F)F)c[nH]c1=O	11.17
CCn1c(C)nnc1CN(C)C1CCN(CCCOC)C1 (centres undefined)	-14.57
O=C(NC1CC1)N1CCc2ncnc(-c3ccncc3)c2CC1.O=C(O)C(F)(F)F	-0.974
CCCC1(CO)CCCN(C(=O)CNC(N)=O)C1 (centres undefined)	7.878
Cc1ccc(SCC(=O)NS(=O)(=O)c2ccc3c(c2)OCCO3)cc1	-15.99
COCC1CN(C(=O)Nc2cc(-n3cccc3)ccc2F)CCO1 (centres undefined)	-10.74
Cc1cc(C)n(C2CCCN(C(=O)c3ccn(C)c(=O)c3)C2)n1 (centres undefined)	-10.93
N#Cc1cc(F)ccc1CN1CCCCC1Cn1cccn1 (centres undefined)	17.7
[H][C@@]12C[C@@H](c3nnc(C)[nH]3)O[C@]1([H])CN(C(=O)c1cc(C)nn1CC)C2	11.73
COCCc1noc(CN2CCCC2Cn2nc(C)nc2C)n1 (centres undefined)	16.37
CCc1nc(N)sc1C(=O)N1CCCC(CCc2ccccc2C)C1 (centres undefined)	-6.69
CC(Cn1cccn1)NC(=O)CCC(=O)c1cccs1 (centres undefined)	7.164
CC(=O)N1CCC(C(=O)N2CCCC(Cc3ccccn3)C2)CC1 (centres undefined)	8.146

Data taken from ChEMBL document CHEMBL3988442, “University of Dundee, Small-Polar-MMV Screening Library” (2021).